PubChem BioAssay AID1053208 – Peter MacCallum Cancer Centre – 2014

Aim: 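Find knock-downs that sensitise mouse osteosarcoma cells to doxorubicin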 (primary screen)
Cells: mouse osteosarcoma cells, early-passage culture from an engineered mouse model of fibroblastic bone tumour
Reagent: siRNA pool against mouse genes, 40 nM
Time to read-out: about 120 h (48 h before drug, then 72 h with drug)
Treatment: doxorubicin 100 nM for 72 h, roughly 30-40% inhibitory dose
Measurement: 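Luminescent ATP signal taken as viability with or without 100 nM doxorubicin for 72 h; mean of two wells set against non-targeting siRNA and turned into robust z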
Direction: viability z-score with doxorubicin: higher = more viable cells under doxorubicin; viability z-score without drug: higher = more viable cells with knock-down alone
Call rule: 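Called active if knock-down leaves viability unchanged without drug (z within -2 to 2) but lowers it with doxorubicin (z at or under -2)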
Here is a random part of about 17,000 reagents tested. In the full data, 788 (4.7%) got an active call. 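Calls rest on z-score classes alone; an extra cut-off of viability at most 70% of control was not applied to them.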 A number with no mark means an inactive call. Not all columns of the deposit are shown.

{"Gene": "Aox4", "combined z-score class": "no change with or without drug", "viability z-score with doxorubicin": 0, "viability z-score without drug": 0.51}
{"Gene": "Zfhx4", "combined z-score class": "no change with or without drug", "viability z-score with doxorubicin": -0.67, "viability z-score without drug": 0.17}
{"Gene": "Brinp1", "combined z-score class": "high cell count without drug only", "viability z-score with doxorubicin": 0, "viability z-score without drug": 2.19}
{"Gene": "Cdk5r1", "combined z-score class": "no change with or without drug", "viability z-score with doxorubicin": 1.12, "viability z-score without drug": 0.67}
{"Gene": "Grina", "combined z-score class": "no change with or without drug", "viability z-score with doxorubicin": 1.12, "viability z-score without drug": 0.51}
{"Gene": "Fars2", "combined z-score class": "no change with or without drug", "viability z-score with doxorubicin": -0.67, "viability z-score without drug": -0.67}
{"Gene": "Acta1", "combined z-score class": "no change with or without drug", "viability z-score with doxorubicin": -0.67, "viability z-score without drug": -1.52}
{"Gene": "Numa1", "combined z-score class": "no change with or without drug", "viability z-score with doxorubicin": -0.67, "viability z-score without drug": -0.67}
{"Gene": "Npepl1", "combined z-score class": "no change with or without drug", "viability z-score with doxorubicin": -0.34, "viability z-score without drug": -0.51}
{"Gene": "Has2", "combined z-score class": "no change with or without drug", "viability z-score with doxorubicin": 0.79, "viability z-score without drug": 0.51}
{"Gene": "Git2", "combined z-score class": "no change with or without drug", "viability z-score with doxorubicin": -0.79, "viability z-score without drug": 0.17}
{"Gene": "Taar6", "combined z-score class": "no change with or without drug", "viability z-score with doxorubicin": 0.45, "viability z-score without drug": -0.34}
{"Gene": "Or4k48", "combined z-score class": "no change with or without drug", "viability z-score with doxorubicin": -0.56, "viability z-score without drug": -1.18}
{"Gene": "Bach1", "combined z-score class": "high cell count with and without drug", "viability z-score with doxorubicin": 3.04, "viability z-score without drug": 2.53}
{"Gene": "Nudt16", "combined z-score class": "no change with or without drug", "viability z-score with doxorubicin": -0.9, "viability z-score without drug": 0.84}
{"Gene": "Cdk2ap1", "combined z-score class": "no change with or without drug", "viability z-score with doxorubicin": -0.79, "viability z-score without drug": -0.84}
{"Gene": "A830054O04Rik", "combined z-score class": "no change with or without drug", "viability z-score with doxorubicin": 0, "viability z-score without drug": 0.34}
{"Gene": "Pramel52-ps", "combined z-score class": "no change with or without drug", "viability z-score with doxorubicin": 0.45, "viability z-score without drug": 0.17}
{"Gene": "1700052K11Rik", "combined z-score class": "high cell count without drug only", "viability z-score with doxorubicin": 0, "viability z-score without drug": 3.2}
{"Gene": "Phf1", "combined z-score class": "no change with or without drug", "viability z-score with doxorubicin": -0.67, "viability z-score without drug": 0.34}
{"Gene": "Ndufb9", "combined z-score class": "low cell count without drug only", "viability z-score with doxorubicin": 0.45, "viability z-score without drug": -2.87}
{"Gene": "Kcnj9", "combined z-score class": "no change with or without drug", "viability z-score with doxorubicin": 0.34, "viability z-score without drug": -0.84}
{"Gene": "Prl8a1", "combined z-score class": "no change with or without drug", "viability z-score with doxorubicin": 0, "viability z-score without drug": 0.17}
{"Gene": "Elac1", "combined z-score class": "no change with or without drug", "viability z-score with doxorubicin": -0.22, "viability z-score without drug": 0.17}
{"Gene": "Phlda1", "combined z-score class": "low cell count with doxorubicin only (active)", "viability z-score with doxorubicin": -2.7, "viability z-score without drug": -1.01}
{"Gene": "Pcmt1", "combined z-score class": "no change with or without drug", "viability z-score with doxorubicin": 0.22, "viability z-score without drug": -0.51}
{"Gene": "Mtf1", "combined z-score class": "no change with or without drug", "viability z-score with doxorubicin": 0.56, "viability z-score without drug": -0.84}
{"Gene": "Cabcoco1", "combined z-score class": "no change with or without drug", "viability z-score with doxorubicin": 1.46, "viability z-score without drug": -0.51}
{"Gene": "Tas2r108", "combined z-score class": "no change with or without drug", "viability z-score with doxorubicin": -0.9, "viability z-score without drug": 1.35}
{"Gene": "Lyz3", "combined z-score class": "high cell count without drug only", "viability z-score with doxorubicin": 1.35, "viability z-score without drug": 2.19}
{"Gene": "Wfdc21", "combined z-score class": "no change with or without drug", "viability z-score with doxorubicin": 0.45, "viability z-score without drug": 1.18}
{"Gene": "5730596B20Rik", "combined z-score class": "no change with or without drug", "viability z-score with doxorubicin": -0.79, "viability z-score without drug": 0.67}
{"Gene": "4933421I07Rik", "combined z-score class": "no change with or without drug", "viability z-score with doxorubicin": -0.22, "viability z-score without drug": 0.51}
{"Gene": "Nat10", "combined z-score class": "low cell count without drug only", "viability z-score with doxorubicin": -1.46, "viability z-score without drug": -7.59}
{"Gene": "Vamp3", "combined z-score class": "no change with or without drug", "viability z-score with doxorubicin": -0.56, "viability z-score without drug": 0.17}
{"Gene": "Sgms2", "combined z-score class": "no change with or without drug", "viability z-score with doxorubicin": -1.35, "viability z-score without drug": 1.52}
